Measurements from PMC3610633.
No constants are given. Whether binding was seen depends on the method and setting. Some results given as binding are weak or reduced against the parent protein; the word gives no strength.

Biological target: T1, TCP4 (A. thaliana) (UniProt Q8LPR5)
T1 sequence: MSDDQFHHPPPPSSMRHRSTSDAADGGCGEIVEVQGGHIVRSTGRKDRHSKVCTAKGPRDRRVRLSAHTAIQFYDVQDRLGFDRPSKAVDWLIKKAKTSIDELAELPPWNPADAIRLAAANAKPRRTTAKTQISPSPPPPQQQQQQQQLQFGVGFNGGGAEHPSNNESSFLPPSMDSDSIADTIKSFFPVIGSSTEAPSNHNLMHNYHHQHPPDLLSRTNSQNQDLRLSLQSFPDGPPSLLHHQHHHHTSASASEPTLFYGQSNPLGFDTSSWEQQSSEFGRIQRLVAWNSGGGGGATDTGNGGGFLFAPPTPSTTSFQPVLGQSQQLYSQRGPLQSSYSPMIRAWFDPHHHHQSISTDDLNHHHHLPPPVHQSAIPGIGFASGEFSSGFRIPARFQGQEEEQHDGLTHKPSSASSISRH
Assay: two-hybrid; yeast two-hybrid on selective medium (Leu-, Trp-, His-) with 60 mM 3-amino 1,2,4-triazole; repeated four times

binding: binds
B1: MYB33 (protein, UniProt Q8W1W6 1-520)
chain: MSYTSTDSDHNESPAADDNGSDCRSRWDGHALKKGPWSSAEDDILIDYVNKHGEGNWNAVQKHTSLFRCGKSCRLRWANHLRPNLKKGAFSQEEEQLIVELHAKMGNRWARMAAHLPGRTDNEIKNYWNTRIKRRQRAGLPLYPPEMHVEALEWSQEYAKSRVMGEDRRHQDFLQLGSCESNVFFDTLNFTDMVPGTFDLADMTAYKNMGNCASSPRYENFMTPTIPSSKRLWESELLYPGCSSTIKQEFSSPEQFRNTSPQTISKTCSFSVPCDVEHPLYGNRHSPVMIPDSHTPTDGIVPYSKPLYGAVKLELPSFQYSETTFDQWKKSSSPPHSDLLDPFDTYIQSPPPPTGGEESDLYSNFDTGLLDMLLLEAKIRNNSTKNNLYRSCASTIPSADLGQVTVSQTKSEEFDNSLKSFLVHSEMSTQNADETPPRQREKKRKPLLDITRPDVLLASSWLDHGLGIVKETGSMSDALAVLLGDDIGNDYMNMSVGASSGVGSCSWSNMPPVCQMTELP
